Reference: article PMC4756708
No constants are given. Whether binding was seen depends on the method and setting. In cells and extracts the contact can be indirect. Some binding calls cover weakened binding; strength is not graded here. For part of these data: Tags and fused reporters may be left off the sequences shown.

Experiments:
[1] = biological target: mouse TRPM1 full-length (mouse) (UniProt Q2TV84); assay: co-IP; HEK293T co-transfected with TRPM1, Gαo, Gβ3 and Gγ13; lysed in PBS IP buffer (150 mM NaCl, 1% Triton X-100, 5 mM MgCl2) with GDP, GDP/AlF4 or GTPγS; TRPM1 precipitated with sheep anti-TRPM1 and protein G, room temperature, 1 hour; Western blot
TRPM1-CT-Nluc (mouse) = biological target: T1, TRPM1-CT-Nluc (mouse) (UniProt Q2TV84); assay: FRET or BRET; HEK293T/17 cells, fixed amount of Nanoluc-fused TRPM1 fragment (donor), increasing Venus-fused G-protein subunit (acceptor); titration of acceptor/donor ratio; read 24 h after transfection in PBS with 0.5 mM MgCl2 and 0.1% glucose, room temperature
T1 sequence: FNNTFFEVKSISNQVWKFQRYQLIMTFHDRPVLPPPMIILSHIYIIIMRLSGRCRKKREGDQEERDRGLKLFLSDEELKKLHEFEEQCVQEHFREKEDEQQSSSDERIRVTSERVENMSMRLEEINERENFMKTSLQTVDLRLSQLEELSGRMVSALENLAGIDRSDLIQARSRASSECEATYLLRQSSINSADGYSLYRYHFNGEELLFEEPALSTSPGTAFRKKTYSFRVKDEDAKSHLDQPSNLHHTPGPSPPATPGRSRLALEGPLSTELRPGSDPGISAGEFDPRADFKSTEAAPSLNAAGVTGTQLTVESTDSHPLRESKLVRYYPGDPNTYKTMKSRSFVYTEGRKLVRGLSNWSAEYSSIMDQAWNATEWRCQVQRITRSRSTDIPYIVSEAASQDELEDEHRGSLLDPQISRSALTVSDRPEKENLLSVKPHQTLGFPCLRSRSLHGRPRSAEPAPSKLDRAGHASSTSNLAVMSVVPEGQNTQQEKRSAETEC

TRPM1-NT-Nluc (mouse) = biological target: T2, TRPM1-NT-Nluc (mouse) (UniProt Q2TV84); assay: as above
T2 sequence: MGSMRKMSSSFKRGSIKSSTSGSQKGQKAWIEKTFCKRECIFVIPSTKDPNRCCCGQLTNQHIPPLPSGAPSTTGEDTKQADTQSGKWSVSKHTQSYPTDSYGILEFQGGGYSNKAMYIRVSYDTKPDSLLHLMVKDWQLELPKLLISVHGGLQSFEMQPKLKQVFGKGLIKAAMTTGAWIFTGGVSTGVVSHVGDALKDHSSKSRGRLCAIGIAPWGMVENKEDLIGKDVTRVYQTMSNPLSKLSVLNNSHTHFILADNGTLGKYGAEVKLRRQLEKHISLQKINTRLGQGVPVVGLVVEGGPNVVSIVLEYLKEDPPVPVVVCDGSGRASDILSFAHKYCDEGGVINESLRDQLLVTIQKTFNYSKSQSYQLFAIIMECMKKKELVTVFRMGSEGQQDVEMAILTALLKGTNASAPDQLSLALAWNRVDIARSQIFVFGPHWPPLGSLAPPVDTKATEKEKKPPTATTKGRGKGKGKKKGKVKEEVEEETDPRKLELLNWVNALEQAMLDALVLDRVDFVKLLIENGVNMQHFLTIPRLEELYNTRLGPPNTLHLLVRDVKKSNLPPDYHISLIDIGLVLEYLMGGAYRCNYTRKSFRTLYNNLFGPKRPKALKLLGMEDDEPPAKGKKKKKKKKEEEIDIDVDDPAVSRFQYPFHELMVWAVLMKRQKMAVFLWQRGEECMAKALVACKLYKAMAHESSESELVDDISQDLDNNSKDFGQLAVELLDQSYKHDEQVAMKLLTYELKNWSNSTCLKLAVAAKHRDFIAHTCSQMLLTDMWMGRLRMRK

| Substance | binding [1] | binding (TRPM1-CT-Nluc (mouse)) | binding (TRPM1-NT-Nluc (mouse)) |
| --- | --- | --- | --- |
| rat Gαo1 (from UniProt P59215-1 1-354) | binds | – | – |
| Venus-Gαo1 (from UniProt P09471-1 1-354) | – | binds | binds |
